This data set deals with MDA-MB-231 breast (STAT3-dependent) cancer cell line. As to the kind of experiment: MTT cell viability assay, MDA-MB-231. Format: cell-based, human. The note with it: STAT3-null A4 versus STAT3-dependent MDA-MB-231. An excerpt: MTT Cell viability assay with both MDA-MB-231 breast (STAT3-dependent) and A4 (STAT3-null) cancer cell lines.
After observing significant STAT3 dimerisation inhibitory activity in the preliminary FP assay, the target ligand and related fragments were progressed to an MTT cytotoxicity assay to evaluate in a STAT3-dependent tumour cell line (MDA MB 231, breast cancer) and a STAT3 null A4 cell line. It was anticipated that the compounds would show selective toxicity towards the STAT3-dependent MDA MB 231 cell line and would have lost activity in the STAT3 null A4 cell line if the mechanism of action was STAT3-mediated.
For each cell line, a total of 10,000 cells were seeded for 24 hours before addition of the inhibitors. The cells were grown in normal cell culture conditions at 37° C. under a 5% CO2 humidified atmosphere using an appropriate medium. The cell count was adjusted to 10^5 cells/ml, and 5,000-20,000 cells were added per well depending on the cell line. The cells were then incubated for 24 hours, and 1 μl aliquots of the inhibitors were added to the wells in triplicate. […] Absorbance was quantified by spectrophotometry at A=570 nm (Envision™ Plate Reader, PerkinElmer™, USA). IC50 values were calculated by a dose-response analysis using the Prism GraphPad Prism® software package.
A general note: Tetrazolium assays rely on reduction of a dye to a coloured formazan, in cell work by metabolically active cells.

On to `COC(=O)c1ccc(N(C)S(=O)(=O)c2cc(C(=O)NCc3ccc(OCCN4CCOCC4)cc3)sc2Br)cc1` [Compound 25, methyl 4-((2-bromo-N-methyl-5-((4-(2-morpholinoethoxy)benzyl)carbamoyl)thiophene)-3-sulfonamido)benzoate], for which the Selectivity ratio was found to be 12.11.
Take `COC(=O)c1ccc(N(C)S(=O)(=O)c2cc(C(=O)Nc3ccc(OCCN4CCOCC4)cc3)sc2Br)cc1` [Compound 29, methyl 4-((2-bromo-N-methyl-5-((4-(2-morpholinoethoxy)phenyl)carbamoyl)thiophene)-3-sulfonamido)benzoate]: the Selectivity ratio is recorded as 9.24.
For `COC(=O)c1ccc(N(C)S(=O)(=O)c2cc(C(=O)Nc3ccc(N4CCN(C(=O)c5cc6ccccc6o5)CC4)cc3)sc2Br)cc1` [Compound 39, methyl 4-((5-((4-(4-(benzofuran-2-carbonyl)piperazin-1-yl)phenyl)carbamoyl)-2-bromo-N-methylthiophene)-3-sulfonamido)benzoate] the value was 9.

Values taken from US20200216432A1, “SULFONAMIDE DERIVATIVES AS STAT3 INHIBITORS FOR THE TREATMENT OF PROLIFERATIVE DISEASES” (King's College London, priority 2017, published 2020).
